# Primary screen of a compound library

Sequences of proteins named here, by UniProt entry; tags and fusion partners are left off. Residues count along the entry.
UniProt P9WPC5, whole entry: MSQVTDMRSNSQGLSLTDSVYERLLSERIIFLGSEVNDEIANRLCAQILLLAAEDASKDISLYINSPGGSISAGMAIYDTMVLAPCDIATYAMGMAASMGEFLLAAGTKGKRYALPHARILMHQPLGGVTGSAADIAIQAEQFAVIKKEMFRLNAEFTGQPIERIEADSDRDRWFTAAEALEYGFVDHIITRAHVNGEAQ
UniProt P9WPC3, whole entry partner: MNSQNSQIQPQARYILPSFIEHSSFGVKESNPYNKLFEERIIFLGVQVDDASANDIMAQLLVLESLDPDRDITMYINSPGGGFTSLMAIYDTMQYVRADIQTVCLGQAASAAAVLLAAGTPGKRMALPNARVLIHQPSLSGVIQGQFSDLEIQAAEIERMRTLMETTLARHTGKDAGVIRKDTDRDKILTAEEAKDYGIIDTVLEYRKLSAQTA
UniProt P9WFT3, whole entry: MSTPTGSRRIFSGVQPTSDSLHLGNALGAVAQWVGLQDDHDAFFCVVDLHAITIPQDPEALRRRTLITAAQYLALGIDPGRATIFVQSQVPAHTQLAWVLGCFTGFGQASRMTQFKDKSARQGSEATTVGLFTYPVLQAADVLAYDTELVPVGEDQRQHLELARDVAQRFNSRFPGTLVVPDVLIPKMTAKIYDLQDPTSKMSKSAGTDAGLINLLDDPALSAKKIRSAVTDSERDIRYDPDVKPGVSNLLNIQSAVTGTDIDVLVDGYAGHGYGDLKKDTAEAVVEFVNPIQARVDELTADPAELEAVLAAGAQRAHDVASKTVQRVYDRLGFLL
UniProt Q8IDJ8, 1-583: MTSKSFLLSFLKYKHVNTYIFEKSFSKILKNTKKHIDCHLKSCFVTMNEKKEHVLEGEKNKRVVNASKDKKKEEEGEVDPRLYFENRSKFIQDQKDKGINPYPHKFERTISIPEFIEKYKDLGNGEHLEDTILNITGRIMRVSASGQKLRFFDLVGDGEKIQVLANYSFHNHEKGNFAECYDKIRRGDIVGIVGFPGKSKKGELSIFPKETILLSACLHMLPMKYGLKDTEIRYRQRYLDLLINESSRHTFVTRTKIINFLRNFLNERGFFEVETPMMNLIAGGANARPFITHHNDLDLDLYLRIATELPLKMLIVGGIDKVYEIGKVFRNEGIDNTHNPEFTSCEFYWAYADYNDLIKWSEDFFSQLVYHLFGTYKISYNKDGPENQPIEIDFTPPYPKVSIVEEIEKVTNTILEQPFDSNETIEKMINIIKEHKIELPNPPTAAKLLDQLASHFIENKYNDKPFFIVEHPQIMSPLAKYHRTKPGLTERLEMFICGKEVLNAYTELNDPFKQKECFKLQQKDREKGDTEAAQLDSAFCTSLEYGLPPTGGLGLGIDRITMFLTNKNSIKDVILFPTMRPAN

The values are deposited in ChEMBL (CHEMBL3988442, “University of Dundee, Small-Polar-MMV Screening Library” (2021)).

ClpP1P2: 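ClpP1P2, Mycobacterium tuberculosis (UniProt P9WPC5 and UniProt P9WPC3). Protease assay of ClpP1P2, read by the AMC dye that it sets free. Compounds at 50 µM. Higher reads as stronger inhibition, judged from the few compounds that gave an IC50. Most other retested compounds had strongly negative values. Size under these conditions: about 69,000 compounds, about 10 of them at 50% or above in at least one test.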
MtTrpRS: 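Tryptophan-tRNA ligase, Mycobacterium tuberculosis (UniProt P9WFT3). Enzyme assay of tryptophanyl-tRNA synthetase; the read-out is not stated. Tested at 10 µM. Higher most likely means stronger inhibition; the record gives no direction and few retests gave an IC50. Size under these conditions: about 65,000 compounds, about 64 of them at 50% or above in at least one test.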
PfKRS1: 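Lysine-tRNA ligase, Plasmodium falciparum 3D7 (UniProt Q8IDJ8). Enzyme assay of the cytosolic lysyl-tRNA synthetase in 384-well plates, read by luminescence. Concentration: 30 µM. Higher reads as stronger inhibition, judged from the few compounds that gave an IC50. Size under these conditions: about 69,000 compounds, about 49 of them at 50% or above in at least one test.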

Each number is a percent effect as filed.
How 0% and 100% were set is not recorded. Most values in the screen are low, and negative values occur.
This is an unselected part of the compounds tested.
A dash means the value is not listed here; it may have been measured.

compound | ClpP1P2 | MtTrpRS | PfKRS1
CN(C)C(C(=O)Nc1nccs1)c1c(F)cccc1Cl (configuration not stated) | -3.704 | -6.983 | 4.234
Cc1ccc(C(=O)NCC(C)CN2CCCC2=O)c(=O)[nH]1 (configuration not stated) | -14.15 | -1.285 | 1.735
N#Cc1ccc(C(=O)NS(=O)(=O)c2ccc(F)c(F)c2)cc1 | 0.6901 | 9.636 | -0.2804
O=S(=O)(NCCc1c[nH]c2cc(F)ccc12)C1CCOC1 (configuration not stated) | 0.8528 | 1.816 | 2.236
O=C(CN1C(=O)CCC1=O)NCCc1nc(C2CC2)cc(C(F)(F)F)n1 | -2.446 | 2.214 | 1.857
COc1cccc(SCCCn2cnc3c(N)ncnc32)c1 | 20.1 | 3.084 | 1.081
Cc1nn(C)c(C)c1C1CCCN1C(=O)c1ccc(CN(C)C)cc1 (configuration not stated) | 18.48 | -0.8746 | -3.239
Cc1cccc(CN2CCCC(O)(CNCCN3CCCCC3)C2=O)c1 (configuration not stated) | 7.031 | 5.332 | -0.2013
Cc1cccc(CCC(=O)Nc2ccnn2C2CCS(=O)(=O)C2)c1 (configuration not stated) | -6.067 | 3.989 | -5.111
Cc1noc(C)c1CN1CC[C@H]2OCC[C@@H](C(=O)NCC3CC3)[C@@H]2C1 | -0.6556 | 1.574 | -1.732
Cc1cnn(CCNCc2csc(-c3ccc(C)o3)n2)c1 | -6.094 | 11.63 | -3.045
Cc1ccc(NC(=O)CNc2cccc3c2CCCC3)c(Br)c1 | 4.104 | -2.682 | 7.302
COc1ccc2c(=O)n(CC3CCNC3)ccc2c1OC (configuration not stated) | 4.39 | -4.238 | 5.729
CCc1cnc(N)nc1NC(C)c1ccc(C)c(C)c1 (configuration not stated) | -13.08 | -6.431 | 0.3189
COc1ccccc1C1CNCCN1C(=O)c1ccc(F)cc1 (configuration not stated) | 9.733 | 0.5465 | 0.7628
O=C(Nc1ccnc(OC2CCOC2)c1)c1ccc(F)cc1Cl (configuration not stated) | -8.235 | -3.263 | -1.231
CC1(C(=O)N2CCN(c3cnccn3)CC2)CNCCO1 (configuration not stated) | -22.12 | 17.32 | -2.107
COCCC1CN(Cc2cn(CCC(N)=O)c3ccccc23)CCO1 (configuration not stated) | -10.45 | -5.211 | 3.948
CN(Cc1ccccc1CNC(=O)C1CNC(=O)N1)C1CCCCC1 (configuration not stated) | 1.214 | -0.3068 | -0.6933
CC[C@H](C)Cn1nc(C2CCNCC2)n(Cc2ccccc2)c1=O | -3.373 | -0.486 | 5.515
O=C1OCCN1CC(=O)N1C[C@H]2CC[C@@H]1CN(C(=O)c1ccccc1)C2 | -6.674 | 4.366 | -0.116
CCN1CCCC(C)(C(=O)NCCCc2nc(C)cs2)C1 (configuration not stated) | 1.008 | -5.901 | 6.74
Cc1cnnn1Cc1ncn2c1CN(Cc1cccs1)CCC2 | 3.802 | 0.2615 | -4.995
CC(O)CN1CCN(Cc2cccc(C(=O)N(C)C)c2)CC1 (configuration not stated) | 7.047 | 1.652 | -0.8719
CC(=O)NC1CCCN(c2nc3ccccc3cc2CO)C1 (configuration not stated) | 0.5287 | 3.994 | 2.236
Cc1cc(CS(=O)(=O)C(C)C(=O)N(C)c2ccccc2)on1 (configuration not stated) | 6.302 | 1.028 | 1.544
Cc1ccc2c(c1)C(NC(=O)N(C)C)CC21CCN(C)CC1 (configuration not stated) | -12.1 | -2.394 | 1.604
CC(C)c1cc(CN(C)C(=O)CN2CCNC2=O)no1 | 14.98 | 0.4531 | -2.883
CS(=O)(=O)N1CC[C@H]2O[C@@H](C(=O)NCc3ccco3)CC[C@H]21 | 4.49 | -1.465 | 6.616
CN(Cc1ccccc1)C(=O)c1cc2c(c(S(N)(=O)=O)c1)CCC2 | -8.695 | 8.42 | 0.3625
CC[C@H]1CN2CC[C@H]1C[C@@H]2CNCc1ccc(N(C)C)cc1 | 9.816 | 0.8283 | -0.5259
Cc1cnn(CC2CCCN2C(=O)CCc2ccco2)c1 (configuration not stated) | -5.5 | -6.277 | -2.813
CN1CCC(c2cccc(Cc3ccccc3)n2)CC1 | 5.813 | - | 3.895
CCOC(=O)C1CCCN(Cc2c[nH]nc2-c2cc3ccccc3o2)C1 (configuration not stated) | -16.75 | -0.4724 | -0.04813
Cc1cc(C(=O)NCC2CCCC2)c(C)n1-c1cccnc1 | 1.644 | -3.311 | -2.186
CCCN1CCCn2nc(CNC(=O)CCc3scnc3C)cc2C1 | -1.677 | -1.896 | 4.21
CCOCC(O)CN1CCN(C(=O)c2ccc3c(c2)COC3)CC1 (configuration not stated) | 3.779 | -1.032 | 3.302
Cc1cc(CN2C[C@@H]3COC[C@]3(CNC(=O)N(C)C)C2)no1 | -4.293 | -1.399 | -1.695
CS(=O)(=O)N1C[C@H]2CNC[C@@]2(C(=O)NCCOc2ccccc2)C1 | -0.4455 | -8.551 | -0.02237
Cc1nc(CNC(=O)NCc2cccnc2N(C)C)cs1 | -12.61 | -3.046 | 1.563
CN(CC(=O)N1CC(Oc2ccccc2Cl)C1)Cc1ccncc1 | 12.27 | -3.138 | -0.5757
CCN(CC)Cc1cc(C(=O)N2CCCC(CC)(C(=O)O)C2)c(C)o1 (configuration not stated) | -11.98 | -6.49 | -2.625
CC(=O)N[C@@H]1CN(C(=O)c2cnc3ccccc3c2)C[C@H]1O | 5.723 | 7.059 | -1.124
CCOC(=O)Cn1c(=O)c(OCC)nc2cnccc21 | 11.26 | -0.7337 | 6.082
Cc1ccc(C(O)CNCc2c(C(C)C)nn(C)c2N(C)C)cc1 (configuration not stated) | 4.21 | 0.8793 | -0.1275
CC(=O)Nc1nc(C2CCN(C(=O)Cc3ccccc3)CC2)cs1 | -4.534 | - | 6.67
Cc1ccc(C(=O)NCCSCc2cccs2)cn1 | 3.258 | 9.095 | -1.406
O=C(c1ccc(Br)o1)N1CCN(Cc2ccc(F)cc2)CC1 | -27.98 | -3.034 | -0.8377
COCCN1C[C@@H](C)[C@@]2(COCCN(C(=O)c3ccno3)C2)C1 | -11.53 | 0.6506 | 2.567
CC(=O)N1CC(=O)N(c2cnn(C)c2)CC12CCN(Cc1ccsc1)C2 (configuration not stated) | 3.814 | 6.191 | 0.7105
CCCC(=O)NC1CCCN(C(=O)c2ccc(C)nc2)C1 (configuration not stated) | -3.271 | -0.7158 | -4.138
CC(C)OCCCNC(=O)CS(=O)(=O)Cc1ccc(Cl)c(Cl)c1 | 4.848 | -0.3997 | -4.718
O=C(c1ccccc1F)N1CCN(CCCn2cncn2)CC1 | -10.04 | -2.577 | 7.808
Cc1cc(NCc2csc(-c3ccco3)n2)ccc1C(N)=O | -0.2117 | -4.253 | 4.152
CCn1cc(CN2CCCN(C(=O)c3ccoc3)CC2)cn1 | -33.98 | 21.69 | 0.06773
Cc1c(CNC(=O)NCc2cccc(-n3cncn3)c2)cnn1C | 3.722 | -3.254 | 2.592
Cc1nc(CC(=O)N2CCc3nnc(N(C)C)cc3C2)cs1 | -7.259 | -4.278 | 1.198
Cn1cc(CN2CCc3nc(-c4ccccn4)nc(O)c3C2)cn1 | -1.103 | 2.291 | -3.587
O=C(CCOc1ccccc1F)N1CCOCC1 | -5.569 | 3.826 | -4.648
CN(C)CCOCC1CN(C(=O)[C@H]2CCCO2)Cc2ccnn2C1 (some centres not stated) | -1.696 | -1.994 | 0.9492
Cc1nc(N2CCN(C(=O)c3cccnc3)CC2)cc(-n2cccc2)n1 | -20.99 | -0.07886 | 1.974

For reference, 4 entries once more:

compound	ClpP1P2	MtTrpRS	PfKRS1
CCCN1CCCn2nc(CNC(=O)CCc3scnc3C)cc2C1	-1.677	-1.896	4.21
Cc1nc(CNC(=O)NCc2cccnc2N(C)C)cs1	-12.61	-3.046	1.563
Cn1cc(CN2CCc3nc(-c4ccccn4)nc(O)c3C2)cn1	-1.103	2.291	-3.587
CS(=O)(=O)N1CC[C@H]2O[C@@H](C(=O)NCc3ccco3)CC[C@H]21	4.49	-1.465	6.616